Patent US20090247540A1 (published 2009)
These are yes or no findings as the source states them, for the method shown. Some binding calls cover weakened binding; strength is not graded here. For part of these data: Sequences can lack the tags named with a protein.

Protein sequences, listed by entry. Tags and fused reporters are not part of them. Residues count along the entry.
UniProt P29317, residues 24-976: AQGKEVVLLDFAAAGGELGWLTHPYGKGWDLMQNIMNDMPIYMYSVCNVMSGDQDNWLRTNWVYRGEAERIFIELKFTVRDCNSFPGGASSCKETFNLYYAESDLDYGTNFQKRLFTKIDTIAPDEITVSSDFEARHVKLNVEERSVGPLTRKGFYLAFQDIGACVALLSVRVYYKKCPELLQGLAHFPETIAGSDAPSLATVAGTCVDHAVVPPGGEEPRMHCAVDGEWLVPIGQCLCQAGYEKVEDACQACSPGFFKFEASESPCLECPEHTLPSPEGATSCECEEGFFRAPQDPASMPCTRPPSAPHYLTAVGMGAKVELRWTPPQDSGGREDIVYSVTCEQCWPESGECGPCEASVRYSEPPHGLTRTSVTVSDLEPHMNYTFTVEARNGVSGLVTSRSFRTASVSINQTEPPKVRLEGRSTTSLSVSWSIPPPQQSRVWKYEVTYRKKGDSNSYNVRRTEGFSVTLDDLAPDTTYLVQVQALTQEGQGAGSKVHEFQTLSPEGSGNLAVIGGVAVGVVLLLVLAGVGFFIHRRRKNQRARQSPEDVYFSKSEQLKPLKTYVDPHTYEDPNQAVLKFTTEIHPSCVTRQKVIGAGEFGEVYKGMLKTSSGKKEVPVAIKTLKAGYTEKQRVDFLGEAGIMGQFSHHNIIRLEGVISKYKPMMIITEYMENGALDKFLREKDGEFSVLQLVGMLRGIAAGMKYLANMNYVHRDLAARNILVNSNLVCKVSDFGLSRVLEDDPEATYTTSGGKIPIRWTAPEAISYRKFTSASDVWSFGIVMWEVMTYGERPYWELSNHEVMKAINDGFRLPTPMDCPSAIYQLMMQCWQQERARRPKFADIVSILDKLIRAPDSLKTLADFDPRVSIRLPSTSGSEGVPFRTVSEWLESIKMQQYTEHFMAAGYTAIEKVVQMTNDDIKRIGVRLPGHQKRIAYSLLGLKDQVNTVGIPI

Legend:
[1] = target: EphA2 receptor of human cancer cells (PC-3, DU-145, lung cancer lines) (human) (UniProt P29317); assay: precipitation from PC3 cell lysates with EP1-Fc, anti-EphA2 blot
[2] = target: EphA2 receptor of human cancer cells (PC-3, DU-145, lung cancer lines) (human) (UniProt P29317); assay: precipitation from lysates of 125I-labelled PC3 cells
[3] = target: EphA2-Fc (EphA2 extracellular domain fused to the heavy chain of human IgG1) (human) (UniProt P29317); assay: phage display biopanning on recombinant EphA2-Fc coated on 96-well plates
[4] = target: EphA2-Fc (EphA2 extracellular domain fused to the heavy chain of human IgG1) (human) (UniProt P29317); assay: phage binding to immobilised EphA2-Fc
[5] = target: EphA2-Fc (EphA2 extracellular domain fused to the heavy chain of human IgG1) (human) (UniProt P29317); assay: phage display biopanning on coated EphA2-Fc

Binder | binding [3] | binding [5] | also measured
RRCVWSTNVYSMEPALFCAA (Fc fusion, not shown: a dimerising Fc or GST) [EP1-Fc fusion protein] | – | – | binding [1]: binds; binding [2]: binds
RRCVWSTNVYSMEPALFCAA [EP1] | binds | – | –
RRCVWSTNVYSMEPALFCAA (peptide, not shown: large carriers) [M13 phage displaying EP1 peptide] | – | – | binding [4]: binds
YSCCLNLYTPWPLCDCVEEWA [EP2] | binds | – | –
HSCKALSSTHGMAWPESAL [EP3] | binds | – | –
RRCVWSTNVYSMEPALFCAA [EP1 peptide] | – | binds | –
YSCCLNLYTPWPLCDCVEEWA [EP2 peptide] | – | binds | –
HSCKALSSTHGMAWPESAL [EP3 peptide] | – | binds | –
